PubChem BioAssay AID504784 | Drosophila RNAi Screening Center | 2011

- Test: 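Genome-wide knock-down for genes giving too much or too little stored lipid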 (primary screen)
- System: Drosophila Kc167 embryonic cells
- Reagents: long dsRNA against Drosophila genes, about 250 ng dsRNA per well
- Timing: 4 days
- Treatment: cells fed 400 µM oleic acid bound to BSA
- Measured: 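Microscope images give a droplet-to-nucleus area ratio, taken as log and converted to a screen-wide B-score; higher values mean greater lipid storage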
- Direction: droplet/nuclear area B-score: higher = more stored lipid (overstorage)
The deposit covers about 17,000 reagents; this is an unselected part of those that have a named target and a result. 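Each column is one replicate's B-score; the combined score over replicates was not deposited, so single values may mislead.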 The numbers tell different reagents against one gene apart. Names joined by + are all predicted targets of the reagent. Further read-outs or replicates are left out here. No sequences are given here.

droplet/nuclear area B-score, replicate 1, by gene and reagent
Nup35 (Nucleoporin 35kDa): #1 1.06
Epac (Exchange protein directly activated by cAMP): #1 1.25; #2 1.13; #3 1.52
Ubx (Ultrabithorax): #1 -0.436
CG7706: #1 0.328
mei-9 (meiotic 9): #1 0.141
CG5612: #1 -0.204
Spn47C (Serpin 47C): #1 -0.212
Srp54 (Splicing regulatory protein 54): #1 -3.02
jub (Ajuba LIM protein): #1 2.4
Arpc1 (Actin-related protein 2/3 complex, subunit 1): #1 -1.44
Gapdh2 (Glyceraldehyde 3 phosphate dehydrogenase 2): #1 -1.81
CG40045: #1 -0.153
CG10041: #1 1.56
Dnah3 (dynein, axonemal, heavy chain 3): #1 -0.371; #2 0.873
CG13563: #1 1.2
net: #1 0.127
CG42327: #1 1.29; #2 0.773; #3 0.775
eff (effete): #1 -0.339
CG33128: #1 7.87
ACXA (Adenylyl cyclase X A): #1 0.807
CG30286: #1 -0.2
Poxn (Pox neuro): #1 0.541; #2 1.55
SAK (Sak kinase): #1 -3.36; #2 -0.38
Rad51D (Rad51 recombinase D): #1 -0.42
CG4462: #1 -0.627
CG8541: #1 -0.454
CG12521: #1 0.0201
plh (pasang lhamu): #1 0.0468
CG18766: #1 0.0662
CG10376: #1 0.727
Debcl (Death executioner Bcl-2): #1 0.158
CG15098: #1 0.253
CG10232: #1 1.36
Rcd-1r + CG13102: #1 0.561
GluRIIC (Glutamate receptor IIC): #1 0.293
hfp (half pint): #1 0.309; #2 0.0295; #3 0.673
CG2961: #1 -2.09
boss (bride of sevenless): #1 0.476
TfIIB (Transcription factor IIB): #1 0.0435
ldbr (lariat debranching enzyme): #1 -0.0326
Cmtr1 (Cap methyltransferase 1): #1 1.62
Sin3A: #1 0.169
Kdm3 (Lysine demethylase 3): #1 -0.0856
Drak (Death-associated protein kinase related): #1 0.813; #2 0.275
Tim17b2 (Translocase inner membrane 17): #1 -0.711
CG5033: #1 0.172

Part of the list above in another layout:
{"gene":"CG13563","reagent no.":1,"droplet/nuclear area B-score, replicate 1":1.2}
{"gene":"net","reagent no.":1,"droplet/nuclear area B-score, replicate 1":0.127}
{"gene":"CG42327","reagent no.":1,"droplet/nuclear area B-score, replicate 1":1.29}
{"gene":"CG42327","reagent no.":2,"droplet/nuclear area B-score, replicate 1":0.773}
{"gene":"CG42327","reagent no.":3,"droplet/nuclear area B-score, replicate 1":0.775}
{"gene":"eff (effete)","reagent no.":1,"droplet/nuclear area B-score, replicate 1":-0.339}
{"gene":"CG33128","reagent no.":1,"droplet/nuclear area B-score, replicate 1":7.87}
{"gene":"ACXA (Adenylyl cyclase X A)","reagent no.":1,"droplet/nuclear area B-score, replicate 1":0.807}
